Test results reported in PubChem BioAssay (NCATS).
The shares of active, inactive and inconclusive entries below differ from those in the screen. For some assays here: Potencies of inconclusive entries are doubtful fits and often do not repeat. Activity calls are given as the source filed them. Calls follow the shape of the dose curve; as a rule, active = well fitted curve in the direction sought with a large enough effect; inconclusive = small, poorly fitted or top-dose-only effect, or another doubt; inactive = no such curve, though single readings can be large; an effect the other way counts as inactive or inconclusive.

Assays:
[1] = Quantitative High-Throughput drug screen in 47 multiple myeloma cell lines against the NCATS MIPE library collection: KHM11_PLB cell viability assay (AID 1918962); settings: KHM11 myeloma cell viability, CellTiter-Glo ATP luminescence, 48 h; series mostly up to 45.8 µM; also: nearly all actives have a fitted effect of over 35% in size
In short: (§1)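 CellTiter-Glo luminescence (ATP) after 48 h compound exposure, 37C/5% CO2; 500 cells/well; MIPE 4.0 approved/investigational drugs pinned in; DMSO = 100%, media only = 0% viability.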

[2] = Quantitative High-Throughput drug screen in 47 multiple myeloma cell lines against the NCATS MIPE library collection: JIM3_ECACC cell viability assay (AID 1918963; also: nearly all actives have a fitted effect of over 35% in size)
In short: as §1

[3] = Quantitative High-Throughput drug screen in 47 multiple myeloma cell lines against the NCATS MIPE library collection: JIM1_ECACC cell viability assay (AID 1918964); settings: JIM1 myeloma viability, CellTiter-Glo ATP luminescence, 48 h; viability (% of DMSO): at 45.8 µM (top of the series)
In short: (§2)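 CellTiter-Glo ATP luminescence gave viability after 48 h compound treatment at 37C of 500 multiple myeloma cells per well. Normalisation used DMSO-only wells as 100% and media-only wells as 0% viability; primary qHTS of approved and investigational drugs.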

[4] = Quantitative High-Throughput drug screen in 47 multiple myeloma cell lines against the NCATS MIPE library collection: JJN3_DSMZ cell viability assay (AID 1918966; also: nearly all actives have a fitted effect of over 50% in size)
In short: as §2

[5] = Quantitative High-Throughput drug screen in 47 multiple myeloma cell lines against the NCATS MIPE library collection: Karpas25_ECACC cell viability assay (AID 1918968; also: nearly all actives have a fitted effect of over 35% in size)
In short: as §2

[6] = Quantitative High-Throughput drug screen in 47 multiple myeloma cell lines against the NCATS MIPE library collection: KMS27_JCRB cell viability assay (AID 1918970); settings: KMS27 myeloma cells, CellTiter-Glo ATP viability, 48 h; viability (% of DMSO): at 45.8 µM (top of the series); also: nearly all actives have a fitted effect of over 30% in size
In short: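 Luminescent ATP read-out (CellTiter-Glo, 5 min at room temperature) after 48 h compound exposure of 500 KMS27_JCRB cells per well; DMSO wells define full viability and media-only wells zero.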

[7] = Quantitative High-Throughput drug screen in 47 multiple myeloma cell lines against the NCATS MIPE library collection: H1112_PLB cell viability assay (AID 1918967; also: nearly all actives have a fitted effect of over 30% in size)
In short: as §2

[8] = Quantitative High-Throughput drug screen in 47 multiple myeloma cell lines against the NCATS MIPE library collection: KMS12BM_JCRB cell viability assay (AID 1918971); settings: KMS12BM myeloma viability, CellTiter-Glo ATP, 48 h; viability, % of DMSO: at 45.8 µM (top of the series); also: nearly all actives have a fitted effect of over 35% in size
In short: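 Inhibition of cell viability is measured here. Each line was plated at 500 cells per well, treated with MIPE 4.0 drugs, kept 48 hours at 37C, then assayed for ATP content by CellTiter-Glo luminescence.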

[9] = Quantitative High-Throughput drug screen in 47 multiple myeloma cell lines against the NCATS MIPE library collection: KMS12PE_JCRB cell viability assay (AID 1918972); settings: KMS12PE myeloma viability, CellTiter-Glo ATP, 48 h; viability: at 45.8 µM (top of the series); also: nearly all actives have a fitted effect of over 30% in size
In short: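 Myeloma cells (500 per well) were exposed to MIPE 4.0 compounds by pin transfer and incubated 48 hours at 37C, 5% CO2. Viability was read as ATP by CellTiter-Glo luminescence, normalised to DMSO (100%) and media-only (0%) wells.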
Potency is read from the fitted curve at half-maximal effect.

SMILES | Potency [1] | Potency [2] | Potency [3] | Potency [4] | Potency [5] | Potency [6] | Potency [7] | Potency [8] | Potency [9]
Cc1oc(=O)oc1CN1CCN(c2cc3c(cc2F)c(=O)c(C(=O)O)c2n3C(C)S2)CC1 (stereo not drawn) | inactive | inactive | inactive | active: 14.8 µM | inactive |  |  |  | 
C=CCn1c(=O)c2cnc(Nc3ccc(N4CCN(C)CC4)cc3)nc2n1-c1cccc(C(C)(C)O)n1 | active: 0.833 µM | active: 0.59 µM | inconclusive: 0.132 µM [cytotoxic, full curve] | active: 0.743 µM |  | inconclusive: 0.166 µM [cytotoxic, full curve] |  |  | 
CC1=C(C(=O)Nc2cc3cn[nH]c3cc2F)C(c2ccc(Cl)cc2F)N=C(c2ccnc(Cl)c2)N1 (stereo not drawn) | inactive | inconclusive: 29.6 µM [cytotoxic, single point] | active: 16.6 µM | inconclusive: 20.9 µM [cytotoxic, partial curve, poor fit] |  |  | active: 18.7 µM | inconclusive: 18.7 µM [cytotoxic, partial curve, poor fit] | 
CC(C)[C@H](C(=O)Nc1ccc(C(=O)NO)cc1)c1ccccc1 | active: 1.32 µM | active: 1.48 µM | active: 0.332 µM | active: 0.662 µM |  | active: 2.09 µM |  |  | 
Cc1ccccc1C(C(=O)NC1CCCCC1)N(C(=O)CNc1ccc(C#N)cc1)c1cccc(F)c1 (stereo not drawn) | inconclusive: 0.0012 µM [rising, full curve, poor fit] | inactive | inconclusive: 0.0662 µM [cytotoxic, full curve, poor fit] | inconclusive: 9.35 µM [cytotoxic, partial curve, poor fit] |  | inconclusive: 0.003 µM [rising, full curve, poor fit] |  | active: 2.96 µM | 
COC(=O)C1=C(C)NC(C)=C(C(=O)OC(C)C)C1c1cccc2nonc12 (stereo not drawn) | inconclusive: 33.2 µM [cytotoxic, single point] | inconclusive: 33.2 µM [cytotoxic, single point] | inactive | inconclusive: 7.43 µM [cytotoxic, partial curve, poor fit] |  | inactive |  |  | 
COc1cc2nc(N3CCN(C(=O)C4COc5ccccc5O4)CC3)nc(N)c2cc1OC (stereo not drawn) | inconclusive: 33.2 µM [cytotoxic, single point] | inconclusive: 23.5 µM [cytotoxic, single point] | inconclusive: 0.148 µM [cytotoxic, full curve, poor fit] | inconclusive: 18.7 µM [cytotoxic, partial curve, poor fit] |  |  |  |  | 
CC(C)c1c(C(=O)Nc2ccccc2)c(-c2ccccc2)c(-c2ccc(F)cc2)n1CC[C@H](O)C[C@@H](O)CC(=O)O | active: 18.7 µM | active: 14.8 µM | inconclusive: 5.26 µM [cytotoxic, partial curve, poor fit] | inconclusive: 0.0026 µM [rising, full curve, poor fit] |  | active: 4.69 µM | inconclusive: 16.6 µM [cytotoxic, partial curve] | active: 13.2 µM | 
CC1(C)CC(=O)c2c(C(F)(F)F)nn(-c3ccc(C(N)=O)c(NC4CCC(OC(=O)CN)CC4)c3)c2C1 (stereo not drawn) | inconclusive: 0.0662 µM [cytotoxic, full curve] | active: 0.148 µM | active: 0.132 µM | active: 0.132 µM |  |  |  |  | 
CCCCCCOC(=O)N=C(N)c1ccc(NCc2nc3cc(C(=O)N(CCC(=O)OCC)c4ccccn4)ccc3n2C)cc1 | inconclusive: 33.2 µM [cytotoxic, partial curve, poor fit] | inconclusive: 29.6 µM [cytotoxic, single point] | active: 8.33 µM |  | inconclusive: 37.2 µM [cytotoxic, single point] | active: 11.8 µM | inconclusive: 33.2 µM [cytotoxic, single point] | active: 16.6 µM | 
N#CC(c1ccc(Cl)cc1)c1c(Cl)cc(-n2ncc(=O)[nH]c2=O)cc1Cl (stereo not drawn) | active: 0.372 µM | inconclusive: 16.6 µM [cytotoxic, partial curve] | active: 20.9 µM | active: 16.6 µM | active: 8.33 µM |  |  | active: 20.9 µM | 
Cc1ccc2c(=O)c3cccc(CC(=O)O)c3oc2c1C | inconclusive: 23.5 µM [cytotoxic, partial curve, poor fit] | inconclusive: 37.2 µM [cytotoxic, single point] | inconclusive: 1.32 µM [cytotoxic, full curve, poor fit] | inconclusive: 2.96 µM [cytotoxic, partial curve, poor fit] | inconclusive: 33.2 µM [cytotoxic, single point] | inconclusive: 5.9 µM [cytotoxic, partial curve, poor fit] |  | inconclusive: 4.18 µM [cytotoxic, full curve, poor fit] | inactive
CN(C)CCc1c[nH]c2ccc(C[C@H]3COC(=O)N3)cc12 | inconclusive: 0.0066 µM [rising, full curve, poor fit] | inactive | inactive | inconclusive: 0.0012 µM [rising, full curve, poor fit] |  | inactive |  | inactive | inactive
COC1CCC(C(=O)c2ccc3nc4c(cc3c2)CCCO4)CC1 (stereo not drawn) | active: 9.35 µM | active: 14.8 µM | inconclusive: 2.96 µM [cytotoxic, full curve, poor fit] | active: 20.9 µM |  |  | inconclusive: 14.8 µM [cytotoxic, partial curve] |  | 
CC=C(C(=CC)c1ccc(O)cc1)c1ccc(O)cc1 | inactive | inconclusive: 26.4 µM [cytotoxic, single point] | inconclusive: 10.5 µM [cytotoxic, partial curve, poor fit] | inconclusive: 7.43 µM [cytotoxic, full curve, poor fit] | inconclusive: 33.2 µM [cytotoxic, single point] |  | inconclusive: 37.2 µM [cytotoxic, single point] |  | 
Oc1ccc(C2CNCCc3c2cc(O)c(O)c3Cl)cc1 (stereo not drawn) | inconclusive: 0.0021 µM [rising, full curve, poor fit] | inactive | inactive | inactive |  | inconclusive: 26.4 µM [cytotoxic, single point] |  | inactive | 
O=c1[nH]c(-c2ccc(C(F)(F)F)cc2)nc2c1CSCC2 | inconclusive: 0.0026 µM [rising, full curve, poor fit] | inactive | inactive | inconclusive: 0.0166 µM [cytotoxic, full curve, poor fit] |  |  | inconclusive: 20.9 µM [cytotoxic, single point] | inconclusive: 20.9 µM [cytotoxic, partial curve, poor fit] | 
CCc1cncnc1N1CCN(Cc2nc3ccc(C(F)(F)F)cc3[nH]2)CC1 | inconclusive: 16.6 µM [cytotoxic, partial curve] | active: 20.9 µM | inactive | inconclusive: 9.35 µM [cytotoxic, partial curve, poor fit] |  |  | inconclusive: 16.6 µM [cytotoxic, partial curve] | active: 14.8 µM | active: 2.09 µM
Nc1cccc(S(=O)(=O)N2CCCN(S(=O)(=O)c3ccc4c(c3)OCCO4)CC2)c1 | inconclusive: 0.332 µM [cytotoxic, full curve, poor fit] | inconclusive: 0.0083 µM [cytotoxic, full curve, poor fit] | inconclusive: 3.32 µM [cytotoxic, partial curve, poor fit] | inconclusive: 5.26 µM [cytotoxic, full curve, poor fit] | inconclusive: 29.6 µM [cytotoxic, single point] |  | inconclusive: 29.6 µM [cytotoxic, single point] | inconclusive: 7.43 µM [cytotoxic, full curve, poor fit] | inactive
Cc1cc2c(F)c(Oc3ncnn4cc(OC[C@@H](C)O)c(C)c34)ccc2[nH]1 | inconclusive: 37.2 µM [cytotoxic, single point] | inconclusive: 23.5 µM [cytotoxic, single point] | inactive | inconclusive: 0.0296 µM [cytotoxic, full curve, poor fit] | inconclusive: 18.7 µM [cytotoxic, partial curve] | inconclusive: 0.148 µM [cytotoxic, full curve, poor fit] | inconclusive: 14.8 µM [cytotoxic, partial curve, poor fit] | inconclusive: 29.6 µM [cytotoxic, single point] | 
CN(C)CC(=O)N1CCC(c2ccc(NC(=O)c3ncc(C#N)[nH]3)c(C3=CCCCC3)c2)CC1 | active: 20.9 µM | inconclusive: 18.7 µM [cytotoxic, partial curve] | active: 5.26 µM | inconclusive: 5.26 µM [cytotoxic, full curve, poor fit] |  | inconclusive: 0.662 µM [cytotoxic, full curve, poor fit] | active: 18.7 µM | inactive | 

Two records picked at random from those above, as already listed:
SMILES | Potency [1] | Potency [2] | Potency [3] | Potency [4] | Potency [5] | Potency [6] | Potency [7] | Potency [8] | Potency [9]
CC1(C)CC(=O)c2c(C(F)(F)F)nn(-c3ccc(C(N)=O)c(NC4CCC(OC(=O)CN)CC4)c3)c2C1 (stereo not drawn) | inconclusive: 0.0662 µM [cytotoxic, full curve] | active: 0.148 µM | active: 0.132 µM | active: 0.132 µM |  |  |  |  | 
CCc1cncnc1N1CCN(Cc2nc3ccc(C(F)(F)F)cc3[nH]2)CC1 | inconclusive: 16.6 µM [cytotoxic, partial curve] | active: 20.9 µM | inactive | inconclusive: 9.35 µM [cytotoxic, partial curve, poor fit] |  |  | inconclusive: 16.6 µM [cytotoxic, partial curve] | active: 14.8 µM | active: 2.09 µM
